Data published in patent US20180327500A1.

Key:
[1] = biological target: His tagged cynomolgus MET ECD (Sinobiological) (cynomolgus); assay: SPR (Bio-Rad XPR-36)
Mouse blade 7-IPT4 = assay: flow cytometry on transfected HEK293 cells
Mouse Blade 5b = assay: flow cytometry on transfected HEK293 cells
Chicken PSI domain = assay: flow cytometry on transfected HEK293 cells
Mouse Blade 6-IPT4 = assay: flow cytometry on transfected HEK293 cells
Chicken IPT1 domain = assay: flow cytometry on transfected HEK293 cells
LS1 = assay: flow cytometry on transfected HEK293 cells
Mouse Blade 1 = assay: flow cytometry on transfected HEK293 cells
Mouse PSI -IPT4 = assay: flow cytometry on transfected HEK293 cells
Mouse Blade 1-2 = assay: flow cytometry on transfected HEK293 cells
Chicken IPT2 domain = assay: flow cytometry on transfected HEK293 cells
Chicken IPT4 domain = assay: flow cytometry on transfected HEK293 cells
Mouse blade 5a = assay: flow cytometry on transfected HEK293 cells
Chicken IPT3 domain = assay: flow cytometry on transfected HEK293 cells
Mouse blade 4 = assay: flow cytometry on transfected HEK293 cells
[2] = biological target: His tagged cynomolgus MET ECD (Sinobiological) (cynomolgus); assay: kinetic binding analysis (SPR)
Mouse blade 3 = assay: flow cytometry on transfected HEK293 cells

binding [1]: binds
binding (Mouse blade 7-IPT4): binds
binding (Mouse Blade 5b): binds
binding (Chicken PSI domain): binds
binding (Mouse Blade 6-IPT4): binds
binding (Chicken IPT1 domain): binds
binding (LS1): binds
binding (Mouse Blade 1): binds
binding (Mouse PSI -IPT4): binds
binding (Mouse Blade 1-2): binds
binding (Chicken IPT2 domain): binds
binding (Chicken IPT4 domain): binds
binding (Mouse blade 5a): binds
binding (Chicken IPT3 domain): binds
binding (Mouse blade 4): binds
binding [2]: binds
B1: humanized antibody 9006 (antibody, human IgG1, kappa, V domains shown)
VH: QVQLVQSGSELKKPGASVKVSCKASGYTFTNFRMNWVKQAPGQGLKWMGWINTYTGEPTYVDDLKGRFVFSLDTSVSTAYLQISSLKAEDTAVYYCARKGIARAMDYWGQGTTVTVSS
VL: DIVMTQSPDSLAVSLGERATINCKSSQSLLDSGNQKNYLAWYQQKPGQPPKLLIFGASTRESGVPDRFSGSGSGTDFTLTISSLQAEDVAVYYCQNDHSYPYTFGQGTKLEIKR

binding [1]: binds
binding (Chicken PSI domain): binds
binding (Chicken IPT1 domain): binds
binding (Chicken IPT2 domain): binds
binding (Chicken IPT4 domain): binds
binding (Mouse blade 3): binds
binding (Chicken IPT3 domain): binds
binding [2]: binds
B2: humanized antibody 9338 (antibody, human IgG1, kappa, V domains shown)
VH: QVQLVQSGAEVKKPGSSVKVSCKASGYTFTSYWMHWVRQAPGQGLEWMGYINPSSGHIENNQKFKDRVTITADKSTSTAYMELSSLRSEDTAVYYCARGRFAYWGQGTLVTVSS
VL: EIVLTQSPATLSLSPGERATLSCSASSSVSSGYLYWYQQKPGQAPRLLIYSTSNLASGIPARFSGSGSGTDFTLTISSLEPEDFAVYYCHQWSSYPFTFGSGTKLEIKR

Results are given in words; binding and its absence hold for the method and conditions named. A result given as binding can be weak or reduced; the word gives no strength. One block for each binder: values may come before it.
